Laboratory results published in patent publication US20100317600 (published 2010).

Test: general procedure: hybrid (solid and solution phase) peptide synthesis; polystyrene functionalized as aminomethyl or benzhydrylamino compound with 4-(4-hydroxymethyl-3-methoxyphenoxy)butyric a; TBTU, 1-hydroxybenzotriazole, diisopropylethylamine (fragment condensation)
Conditions: purification step, analytical HPLC; capillary electrophoresis; MS, TFA salt converted to acetate

Substance	final HPLC purity
ANP(99-126)	more than 90%
ANP(102-126)	more than 90%

The same purity stands for every peptide and may come from a single statement.
